Values joined by “and” are separate entries in the source; they are usually repeats but may differ in a detail not shown here. Equal entries are not always repeated. This is one part of the list. Repeats in this data set agree poorly, so a single value says little.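 Fusion between ACE2-bearing and full-length-spike-bearing U2OS cells was measured by imaging as the percentage of nuclei with both cell types' fluorescent markers. An inhibitory hit is a non-toxic compound whose fusion z-score is below -3, more than three standard deviations beneath the plate's DMSO wells.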
system: U2OS ACE2 x SARS-CoV-2 spike co-culture; experiment: cell-cell fusion (fraction fused) z-score vs plate DMSO control; higher = more fusion; details: 30 µM; 5 h; toxicity class: non-toxic, passed QC

Question: Which “cell-cell fusion (z-score)” value does the source give for `CC(=O)Nc1cc2ccccc2oc1=O` here?
Answer: The value was inactive: 2.56.

Question: Which “cell-cell fusion (z-score)” value does the source give for `C[C@]12CC[C@@H]3c4ccc(O)cc4C[C@@H](CCCCCCCCCS(=O)CCCC(F)(F)C(F)(F)F)[C@H]3[C@@H]1CC[C@@H]2O` (stereo partly drawn) [Fulvestrant] here?
Answer: Its value is inactive: 2.1.

Question: `C#C[C@]1(O)CC[C@H]2[C@@H]3CCc4cc(OC5CCCC5)ccc4[C@H]3CC[C@@]21C` [Quinestrol] was tested. Which “cell-cell fusion (z-score)” value did it give?
Answer: Its value is inactive: 1.59.

Question: Which “cell-cell fusion (z-score)” value does the source give for `Br.Br.CN(C)CCCc1cc(C(=O)Nc2ccc(-c3ccncc3)cc2)ccc1O` here?
Answer: Its value is inactive: -1.48.

Question: `CCOP(=S)(OCC)Oc1nc(Cl)c(Cl)cc1Cl` was tested. Which “cell-cell fusion (z-score)” value did it give?
Answer: Its value is inactive: 4.1.

Question: How did the “cell-cell fusion (z-score)” value turn out when `Oc1c(I)cc(Cl)c2cccnc12` was run?
Answer: Its value is inactive: 3.

Question: With `Clc1ccc(C(Cn2ccnc2)OCc2csc3c(Cl)cccc23)c(Cl)c1.O=[N+]([O-])O` (stereo not drawn) [Sertaconazole nitrate] as the compound, how does the “cell-cell fusion (z-score)” value read?
Answer: Its value is active: -5.4.

Question: For `COc1ccc2c(c1OC)N=C(NC(=O)c1cccnc1)N1CCN=C21`, which “cell-cell fusion (z-score)” value is on record?
Answer: Its value is inactive: 1.96.

Question: With `CN[C@@H](C)C(=O)N[C@H]1CN(C(=O)CC(C)C)CC[C@H]2CC[C@@H](C(=O)NC(c3ccccc3)c3ccccc3)N2C1=O` as the compound, how does the “cell-cell fusion (z-score)” value read?
Answer: Its value is inactive: 1.59.

Question: `CC(=O)OCC[C@H](C)CCC=C(C)C` was tested. Which “cell-cell fusion (z-score)” value did it give?
Answer: The value was inactive: 1.93.

Question: For `CC(=O)OC(C)C[N+](C)(C)C.[Cl-]` (stereo not drawn) [Methacholine Chloride], which “cell-cell fusion (z-score)” value is on record?
Answer: Its value is inactive: 1.9.

Question: For `CC(=O)OC(C)C[N+](C)(C)C.[Cl-]` (stereo not drawn) [Acetyl-beta-methylcholine chloride], which “cell-cell fusion (z-score)” value is on record?
Answer: Its value is inactive: 1.9.

Question: With `CC(=O)OC(C)C[N+](C)(C)C.[Cl-]` (stereo not drawn) as the compound, how does the “cell-cell fusion (z-score)” value read?
Answer: The value was inactive: 1.24.

Question: Which “cell-cell fusion (z-score)” value does the source give for `Nc1nc2c(nc(Br)n2C2OC3CO[P@@](=O)([O-])O[C@@H]3C2O)c(=O)[nH]1.[Na+]` (stereo partly drawn) [8-Bromo-cGMP sodium] here?
Answer: Its value is inactive: 1.6.

Question: With `Oc1cc(O)cc(/C=C/c2ccc(O)c(O)c2)c1` [Piceatannol] as the compound, how does the “cell-cell fusion (z-score)” value read?
Answer: The value was inactive: -2.21.

Question: For `O=C(O[C@@H]1C[C@@H]2C[C@@H]3C[C@H](C1)N2CC3=O)c1c[nH]c2ccccc12` [Dolasetron], which “cell-cell fusion (z-score)” value is on record?
Answer: The value was inactive: 0.879.

Question: Which “cell-cell fusion (z-score)” value does the source give for `C/C(=C\C(=O)OCCCCCCCCC(=O)O)C[C@@H]1OC[C@H](C[C@@H]2O[C@H]2[C@@H](C)[C@H](C)O)[C@@H](O)[C@H]1O` here?
Answer: The value was inactive: 3.81.

Question: For `CC(=O)[C@H]1CCC2C3CCC4=CC(=O)CC[C@]4(C)C3CC[C@@]21C` (stereo partly drawn), which “cell-cell fusion (z-score)” value is on record?
Answer: Its value is inactive: 1.27.

Question: How did the “cell-cell fusion (z-score)” value turn out when `C[C@H](N)[C@H](O)c1cccc(O)c1.O=C(O)[C@H](O)[C@@H](O)C(=O)O` was run?
Answer: The value was inactive: -0.162.

Question: `COc1cc(OC2CCN(C)CC2)ccc1Nc1ncc2c(n1)n(C1CCCC1)c(=O)n2C` was tested. Which “cell-cell fusion (z-score)” value did it give?
Answer: Its value is inactive: 1.51.

Question: For `O=C(O)[C@@H]1CCCN1` [proline], which “cell-cell fusion (z-score)” value is on record?
Answer: The value was inactive: -0.606.

Question: Which “cell-cell fusion (z-score)” value does the source give for `CC(C)(C)NC(=O)[C@H]1CC[C@H]2[C@@H]3CC[C@H]4NC(=O)C=C[C@]4(C)[C@H]3CC[C@]12C` [Finasteride] here?
Answer: The value was inactive: 3.48.

Question: For `Cl.c1ccc2c(N3CCNCC3)cccc2c1` [1-(1-Naphthyl)piperazine hydrochloride], which “cell-cell fusion (z-score)” value is on record?
Answer: The value was inactive: 2.07.

Question: How did the “cell-cell fusion (z-score)” value turn out when `CN(C)[C@@H]1C(O)=C(C(N)=O)C(=O)[C@@]2(O)C(O)=C3C(=O)c4c(O)cccc4[C@@](C)(O)[C@H]3C[C@@H]12.Cl` was run?
Answer: The value was inactive: 2.

Question: `CC[C@H]1OC(=O)[C@H](C)[C@@H](O[C@H]2C[C@@](C)(OC)[C@@H](O)[C@H](C)O2)[C@H](C)[C@@H](O[C@@H]2O[C@H](C)C[C@H](N(C)C)[C@H]2O)[C@](C)(O)C[C@@H](C)/C(=N\OCOCCOC)[C@H](C)[C@@H](O)[C@]1(C)O` was tested. Which “cell-cell fusion (z-score)” value did it give?
Answer: The value was inactive: 4.13.

Question: `Cc1cccc(C)c1OCC(N)C(C)C.I` (stereo not drawn) was tested. Which “cell-cell fusion (z-score)” value did it give?
Answer: The value was inactive: 3.18.

Question: `Nc1nccc(Oc2ccc(NC(=O)c3c[nH]cc(-c4ccc(F)cc4)c3=O)cc2F)c1Cl` was tested. Which “cell-cell fusion (z-score)” value did it give?
Answer: Its value is inactive: 0.942 and inactive: 2.34.

Question: `[Cl-].[Cl-].[Cl-].[Cl-].[Cl-].[Cl-].[NH3+][Ru]([NH3+])([NH3+])([NH3+])([NH3+])[O][Ru]([NH3+])([NH3+])([NH3+])([NH3+])[O][Ru]([NH3+])([NH3+])([NH3+])([NH3+])[NH3+]` [Ruthenium red] was tested. Which “cell-cell fusion (z-score)” value did it give?
Answer: The value was inactive: -0.212.

Question: With `C=C1CC[C@H](O)C/C1=C/C=C1\CCC[C@]2(C)[C@@H]([C@H](C)CCCC(C)(C)O)CC[C@@H]12` [Calcifediol] as the compound, how does the “cell-cell fusion (z-score)” value read?
Answer: Its value is inactive: 1.85.

Question: How did the “cell-cell fusion (z-score)” value turn out when `CN1C(=O)CCS(=O)(=O)C1c1ccc(Cl)cc1` (stereo not drawn) [Chlormezanone] was run?
Answer: The value was inactive: 1.52.

Question: How did the “cell-cell fusion (z-score)” value turn out when `CC(C)(C)[C@]1(O)CCN2C[C@H]3c4ccccc4CCc4cccc(c43)[C@@H]2C1.Cl` (racemic) [(±)-Butaclamol hydrochloride] was run?
Answer: Its value is inactive: 2.17.

Question: How did the “cell-cell fusion (z-score)” value turn out when `COc1cc2ncnc(Nc3ccc(F)c(Cl)c3)c2cc1OCCCN1CCOCC1` [Gefitinib] was run?
Answer: The value was inactive: 0.632.

Question: Which “cell-cell fusion (z-score)” value does the source give for `CCN(CC)CC(=O)Nc1c(C)cccc1C.Cl` [Lidocaine hydrochloride] here?
Answer: The value was inactive: 2.33.

Question: For `CCN(CC)CC(=O)Nc1c(C)cccc1C.Cl`, which “cell-cell fusion (z-score)” value is on record?
Answer: Its value is inactive: 1.71.

Question: `Cc1cc2cc3c(C)cc(=O)oc3c(C)c2o1` was tested. Which “cell-cell fusion (z-score)” value did it give?
Answer: Its value is inactive: 2.23.

Question: Which “cell-cell fusion (z-score)” value does the source give for `CC(=O)/C=C1\C(=O)N(C)c2ccccc21` [Supercinnamaldehyde] here?
Answer: The value was inactive: 0.662.

Question: `Cc1ccc(NC(=O)c2cccc(N(C)C)c2)cc1NC(=O)c1ccc(O)cc1` was tested. Which “cell-cell fusion (z-score)” value did it give?
Answer: Its value is inactive: 2.8.

Question: `Nc1nc(=O)c2c([nH]1)NCC(CNc1ccc(C(=O)N[C@@H](CCC(=O)[O-])C(=O)[O-])cc1)N2C=O.O.O.O.O.O.[Ca+2]` (stereo partly drawn) [Folinic Acid Calcium Salt Pentahydrate] was tested. Which “cell-cell fusion (z-score)” value did it give?
Answer: The value was inactive: 3.52.

Question: With `Cc1nc2n(c(=O)c1CCN1CCC(c3noc4cc(F)ccc34)CC1)CCCC2O` (stereo not drawn) [Paliperidone] as the compound, how does the “cell-cell fusion (z-score)” value read?
Answer: The value was inactive: 1.78.

Question: For `C#CCCCCCCCCCCCC(O)CC(O)COC(C)=O` (stereo not drawn), which “cell-cell fusion (z-score)” value is on record?
Answer: Its value is inactive: 2.2.

Question: Which “cell-cell fusion (z-score)” value does the source give for `Cl.Clc1cccc(Cl)c1N=C1NCCN1` here?
Answer: The value was inactive: 0.275.

Question: Which “cell-cell fusion (z-score)” value does the source give for `Cl.Clc1cccc(Cl)c1N=C1NCCN1` [Clonidine hydrochloride] here?
Answer: The value was inactive: 0.734.

Question: Which “cell-cell fusion (z-score)” value does the source give for `CCC(C)[C@H]1O[C@]2(C=C[C@@H]1C)C[C@@H]1C[C@@H](C/C=C(\C)[C@@H](OC3C[C@H](OC)C(O[C@H]4C[C@H](OC)[C@@H](NC(C)=O)[C@H](C)O4)[C@H](C)O3)[C@@H](C)/C=C/C=C3\CO[C@@H]4[C@H](O)C(C)=C[C@@H](C(=O)O1)[C@]34O)O2` (stereo partly drawn) here?
Answer: Its value is active: -16.7.
